Source: patent US11697772B2, “Hydrotropic composition and its uses” (KEMIRA OYJ, priority 2017, dated 2023)
Some of these results come from one statement about several compounds together.

Assay: Differential scanning calorimetry of IL/DPPC liposome mixtures (main phase transition)
Format: physicochemical
Details: 0.5 mM IL, 0.4 mM DPPC
Method: The median effective concentrations (EC50) were determined for each IL. Since the toxic effect was thought to be caused by permeation of these surface-active molecules into the cell wall of the bacteria, related interactions of ILs with biomimetic liposomes were investigated utilizing differential scanning calorimetry (DSC). In DSC experiments, dipalmitoyl phosphatidylcholine (DPPC) liposomes were used as biomimicking membranes and the change in the main phase transition temperature (Tm) of the DPPC bilayer was followed, as a function of the IL concentrations. Such measurements could potentially offer more information on how the aforementioned ILs interact with the lipid bilayers. Lastly, the critical micelle concentrations (CMC) were defined for the ILs. […] Therefore, it can be determined if the interactions with the bacteria or liposomes take place between IL aggregates or singly dispersed IL molecules.
The DSC experiments were performed in order to find out the IL concentrations that induce the drift in the DPPC bilayer phase transition temperature. FIG. 3 illustrates the representative endotherms, which were recorded during the second heating scans. […] Cooling scans (not shown) were recorded in order to follow the stability of the system, however, no further analysis of the cooling scans was performed. […]

1,1,3,3-Tetramethylguanidinium isostearate [TMG Isostearate]
main phase transition temperature of DPPC bilayer: ≤ 35 °C

Guanidinium isostearate [GND Isostearate]
main phase transition temperature of DPPC bilayer: ≤ 35 °C
